Measured values published in the supplement of paper PMC10849652.
This is one part of the list.

Amino acid sequences for entries named in this document (tags omitted). A change or cut given only in a name is not applied to a line headed by its entry.
UniProt Q08211, whole entry, looked up: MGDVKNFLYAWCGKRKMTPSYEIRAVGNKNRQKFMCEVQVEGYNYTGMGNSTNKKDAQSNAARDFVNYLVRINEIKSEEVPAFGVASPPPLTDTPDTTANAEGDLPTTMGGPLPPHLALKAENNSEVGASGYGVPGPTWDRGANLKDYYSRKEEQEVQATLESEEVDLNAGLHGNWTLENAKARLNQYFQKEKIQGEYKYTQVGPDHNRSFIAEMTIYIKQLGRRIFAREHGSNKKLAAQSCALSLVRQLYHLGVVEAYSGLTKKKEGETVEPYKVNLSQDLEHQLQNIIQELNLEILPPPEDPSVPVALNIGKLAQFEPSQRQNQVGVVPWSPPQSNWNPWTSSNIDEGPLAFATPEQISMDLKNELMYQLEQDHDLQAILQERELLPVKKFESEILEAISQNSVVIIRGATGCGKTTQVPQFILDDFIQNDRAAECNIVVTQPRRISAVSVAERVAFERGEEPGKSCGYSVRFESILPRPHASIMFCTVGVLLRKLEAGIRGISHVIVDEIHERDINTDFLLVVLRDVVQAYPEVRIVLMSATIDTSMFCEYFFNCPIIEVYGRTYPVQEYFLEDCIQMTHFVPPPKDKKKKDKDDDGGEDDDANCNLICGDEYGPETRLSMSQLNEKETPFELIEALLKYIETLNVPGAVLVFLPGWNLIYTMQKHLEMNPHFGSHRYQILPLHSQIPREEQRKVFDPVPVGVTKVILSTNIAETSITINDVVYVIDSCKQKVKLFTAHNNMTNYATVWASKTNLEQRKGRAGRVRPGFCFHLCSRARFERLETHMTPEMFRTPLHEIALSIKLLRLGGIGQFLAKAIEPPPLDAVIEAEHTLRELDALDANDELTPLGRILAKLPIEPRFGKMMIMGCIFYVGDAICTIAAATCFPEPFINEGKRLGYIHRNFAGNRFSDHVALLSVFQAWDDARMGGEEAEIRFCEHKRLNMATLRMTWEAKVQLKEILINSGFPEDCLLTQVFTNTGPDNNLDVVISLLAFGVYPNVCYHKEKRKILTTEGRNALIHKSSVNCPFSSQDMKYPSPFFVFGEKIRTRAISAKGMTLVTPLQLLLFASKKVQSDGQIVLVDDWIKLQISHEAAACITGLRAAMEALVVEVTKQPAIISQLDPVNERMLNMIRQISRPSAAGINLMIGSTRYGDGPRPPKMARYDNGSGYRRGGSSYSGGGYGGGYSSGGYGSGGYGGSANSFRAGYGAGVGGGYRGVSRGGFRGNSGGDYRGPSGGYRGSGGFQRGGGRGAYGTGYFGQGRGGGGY
UniProt O60832: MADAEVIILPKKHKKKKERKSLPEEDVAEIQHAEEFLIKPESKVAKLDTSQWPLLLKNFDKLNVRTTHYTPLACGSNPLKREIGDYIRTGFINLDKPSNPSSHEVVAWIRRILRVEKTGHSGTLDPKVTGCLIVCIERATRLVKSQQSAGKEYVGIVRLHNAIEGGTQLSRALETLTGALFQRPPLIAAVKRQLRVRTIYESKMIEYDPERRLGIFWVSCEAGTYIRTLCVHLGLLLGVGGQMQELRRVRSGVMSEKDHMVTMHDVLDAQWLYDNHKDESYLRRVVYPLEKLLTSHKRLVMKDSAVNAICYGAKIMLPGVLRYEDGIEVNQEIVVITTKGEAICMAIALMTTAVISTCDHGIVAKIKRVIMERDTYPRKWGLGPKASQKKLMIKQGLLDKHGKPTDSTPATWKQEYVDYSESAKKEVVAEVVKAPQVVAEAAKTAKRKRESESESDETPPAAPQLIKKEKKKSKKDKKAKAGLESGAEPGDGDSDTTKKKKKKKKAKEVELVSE
UniProt Q16854: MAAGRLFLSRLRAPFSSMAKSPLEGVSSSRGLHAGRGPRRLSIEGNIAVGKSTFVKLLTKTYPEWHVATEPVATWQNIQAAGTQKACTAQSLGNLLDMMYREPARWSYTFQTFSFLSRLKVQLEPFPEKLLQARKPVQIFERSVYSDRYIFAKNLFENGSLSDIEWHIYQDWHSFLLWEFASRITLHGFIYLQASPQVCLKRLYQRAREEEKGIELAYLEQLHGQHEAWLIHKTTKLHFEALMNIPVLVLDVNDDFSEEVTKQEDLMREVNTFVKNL
UniProt Q9UNQ2: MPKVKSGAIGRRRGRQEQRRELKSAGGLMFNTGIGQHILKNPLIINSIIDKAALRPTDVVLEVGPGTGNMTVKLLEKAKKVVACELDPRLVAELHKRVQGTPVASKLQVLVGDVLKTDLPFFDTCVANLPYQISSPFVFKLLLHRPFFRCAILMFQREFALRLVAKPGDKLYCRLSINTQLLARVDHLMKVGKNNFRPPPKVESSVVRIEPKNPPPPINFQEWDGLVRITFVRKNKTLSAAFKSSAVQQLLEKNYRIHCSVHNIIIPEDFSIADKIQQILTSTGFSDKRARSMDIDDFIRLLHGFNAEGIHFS
UniProt Q6IAN0: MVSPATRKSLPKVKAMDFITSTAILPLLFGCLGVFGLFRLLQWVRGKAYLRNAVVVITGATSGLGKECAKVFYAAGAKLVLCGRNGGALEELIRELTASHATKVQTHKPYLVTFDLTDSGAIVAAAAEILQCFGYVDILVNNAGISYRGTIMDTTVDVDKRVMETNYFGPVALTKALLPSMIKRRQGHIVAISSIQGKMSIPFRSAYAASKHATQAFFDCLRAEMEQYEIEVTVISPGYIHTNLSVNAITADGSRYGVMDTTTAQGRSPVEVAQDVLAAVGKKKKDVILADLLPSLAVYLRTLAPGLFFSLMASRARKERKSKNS
UniProt Q9BTC0, whole entry, looked up: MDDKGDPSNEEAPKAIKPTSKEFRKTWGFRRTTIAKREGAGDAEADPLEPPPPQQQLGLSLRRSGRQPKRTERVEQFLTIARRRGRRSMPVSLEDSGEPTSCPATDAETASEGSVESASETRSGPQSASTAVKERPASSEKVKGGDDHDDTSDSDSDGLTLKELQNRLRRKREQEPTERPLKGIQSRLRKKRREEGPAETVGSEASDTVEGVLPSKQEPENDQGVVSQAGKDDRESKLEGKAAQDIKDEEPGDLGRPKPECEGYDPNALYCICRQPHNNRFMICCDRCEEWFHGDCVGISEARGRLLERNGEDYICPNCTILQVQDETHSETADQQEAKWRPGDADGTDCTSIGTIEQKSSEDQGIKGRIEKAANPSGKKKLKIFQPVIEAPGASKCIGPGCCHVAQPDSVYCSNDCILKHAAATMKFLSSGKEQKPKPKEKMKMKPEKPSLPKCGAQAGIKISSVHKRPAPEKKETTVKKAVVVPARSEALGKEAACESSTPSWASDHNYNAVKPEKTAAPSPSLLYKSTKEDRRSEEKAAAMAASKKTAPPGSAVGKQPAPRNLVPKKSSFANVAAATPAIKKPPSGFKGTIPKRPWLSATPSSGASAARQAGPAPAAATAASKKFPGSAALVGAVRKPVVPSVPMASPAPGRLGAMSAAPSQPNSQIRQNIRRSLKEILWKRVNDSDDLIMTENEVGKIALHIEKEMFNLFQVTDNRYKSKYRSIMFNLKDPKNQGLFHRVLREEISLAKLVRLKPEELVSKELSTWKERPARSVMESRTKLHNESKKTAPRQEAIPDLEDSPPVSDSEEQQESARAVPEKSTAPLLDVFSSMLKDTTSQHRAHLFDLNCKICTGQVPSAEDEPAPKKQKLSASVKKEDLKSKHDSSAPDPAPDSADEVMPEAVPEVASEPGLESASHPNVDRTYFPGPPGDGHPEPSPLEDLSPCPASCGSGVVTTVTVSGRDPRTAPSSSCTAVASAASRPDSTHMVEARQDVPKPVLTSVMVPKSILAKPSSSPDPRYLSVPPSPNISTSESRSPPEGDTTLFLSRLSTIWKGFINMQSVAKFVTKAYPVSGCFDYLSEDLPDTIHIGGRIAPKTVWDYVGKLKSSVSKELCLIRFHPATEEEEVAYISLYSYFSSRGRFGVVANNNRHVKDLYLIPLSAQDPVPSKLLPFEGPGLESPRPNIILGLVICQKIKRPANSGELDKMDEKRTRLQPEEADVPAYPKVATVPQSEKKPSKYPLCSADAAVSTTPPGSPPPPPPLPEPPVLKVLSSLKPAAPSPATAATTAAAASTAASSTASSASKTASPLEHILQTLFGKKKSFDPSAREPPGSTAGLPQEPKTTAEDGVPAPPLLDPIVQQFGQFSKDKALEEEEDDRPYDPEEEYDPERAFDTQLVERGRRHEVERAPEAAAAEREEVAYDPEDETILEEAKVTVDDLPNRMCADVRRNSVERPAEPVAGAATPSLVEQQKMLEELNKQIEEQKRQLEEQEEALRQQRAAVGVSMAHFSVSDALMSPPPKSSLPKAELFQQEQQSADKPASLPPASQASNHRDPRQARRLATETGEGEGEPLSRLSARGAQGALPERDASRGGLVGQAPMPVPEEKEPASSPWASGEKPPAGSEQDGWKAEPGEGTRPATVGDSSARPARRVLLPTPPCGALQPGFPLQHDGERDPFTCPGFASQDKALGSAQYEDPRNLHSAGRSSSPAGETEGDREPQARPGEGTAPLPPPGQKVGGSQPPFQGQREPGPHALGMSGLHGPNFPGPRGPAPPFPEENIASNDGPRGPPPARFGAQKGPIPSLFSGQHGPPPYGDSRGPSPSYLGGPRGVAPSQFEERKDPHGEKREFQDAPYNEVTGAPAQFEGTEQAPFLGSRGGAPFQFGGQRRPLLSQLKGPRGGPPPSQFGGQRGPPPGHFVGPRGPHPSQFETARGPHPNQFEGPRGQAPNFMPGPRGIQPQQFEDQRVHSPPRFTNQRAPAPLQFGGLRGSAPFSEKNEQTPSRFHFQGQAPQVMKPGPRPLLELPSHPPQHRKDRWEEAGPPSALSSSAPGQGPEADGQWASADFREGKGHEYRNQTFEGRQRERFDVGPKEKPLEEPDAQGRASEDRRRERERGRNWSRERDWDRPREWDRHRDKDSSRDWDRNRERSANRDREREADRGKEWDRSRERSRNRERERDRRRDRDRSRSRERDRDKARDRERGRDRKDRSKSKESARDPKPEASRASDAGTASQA
UniProt Q8WYQ5: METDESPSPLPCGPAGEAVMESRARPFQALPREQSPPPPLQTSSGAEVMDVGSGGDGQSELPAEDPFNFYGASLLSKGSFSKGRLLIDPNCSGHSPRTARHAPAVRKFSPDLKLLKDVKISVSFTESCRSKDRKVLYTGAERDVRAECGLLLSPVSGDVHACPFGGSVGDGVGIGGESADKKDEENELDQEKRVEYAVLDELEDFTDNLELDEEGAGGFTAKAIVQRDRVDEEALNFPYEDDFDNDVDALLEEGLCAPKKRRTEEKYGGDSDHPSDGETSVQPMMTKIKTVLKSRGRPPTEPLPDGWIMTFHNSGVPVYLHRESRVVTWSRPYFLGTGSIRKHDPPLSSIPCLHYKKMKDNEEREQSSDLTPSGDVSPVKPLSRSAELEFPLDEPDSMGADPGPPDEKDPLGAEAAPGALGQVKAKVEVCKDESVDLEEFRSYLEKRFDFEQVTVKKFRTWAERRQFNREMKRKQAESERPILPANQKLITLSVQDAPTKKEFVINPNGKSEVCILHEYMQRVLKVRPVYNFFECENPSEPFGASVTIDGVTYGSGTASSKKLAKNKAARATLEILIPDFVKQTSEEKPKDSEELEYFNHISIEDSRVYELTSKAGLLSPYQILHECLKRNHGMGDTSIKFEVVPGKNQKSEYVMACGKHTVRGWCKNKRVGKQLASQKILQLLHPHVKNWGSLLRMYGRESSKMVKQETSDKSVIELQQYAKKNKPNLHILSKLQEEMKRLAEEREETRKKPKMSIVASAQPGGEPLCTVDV
UniProt Q99766: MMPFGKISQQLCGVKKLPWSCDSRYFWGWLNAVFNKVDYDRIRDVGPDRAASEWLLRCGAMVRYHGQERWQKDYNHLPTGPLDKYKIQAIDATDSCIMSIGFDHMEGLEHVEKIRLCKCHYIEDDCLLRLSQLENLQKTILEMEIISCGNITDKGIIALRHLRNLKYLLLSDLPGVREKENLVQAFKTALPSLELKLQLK
UniProt P98153: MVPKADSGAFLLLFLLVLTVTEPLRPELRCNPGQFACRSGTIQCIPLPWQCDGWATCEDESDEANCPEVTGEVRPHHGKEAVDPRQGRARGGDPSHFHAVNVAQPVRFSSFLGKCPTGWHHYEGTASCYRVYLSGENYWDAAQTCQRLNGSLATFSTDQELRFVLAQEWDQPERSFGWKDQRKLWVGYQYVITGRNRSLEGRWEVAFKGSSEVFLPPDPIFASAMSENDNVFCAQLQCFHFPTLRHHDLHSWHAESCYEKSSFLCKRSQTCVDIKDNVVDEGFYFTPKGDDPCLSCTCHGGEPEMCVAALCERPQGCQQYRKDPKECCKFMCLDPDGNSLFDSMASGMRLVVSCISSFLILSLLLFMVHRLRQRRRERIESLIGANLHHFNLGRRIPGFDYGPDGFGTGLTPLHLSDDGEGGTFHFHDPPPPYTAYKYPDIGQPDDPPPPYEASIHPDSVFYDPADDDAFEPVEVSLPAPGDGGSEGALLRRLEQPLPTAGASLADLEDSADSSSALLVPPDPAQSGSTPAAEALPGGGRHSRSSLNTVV

Experiments:
Experiment in all cases: log2 fold change, soluble protein after heating vs DMSO (PISA); higher = thermal stabilisation; K562 lysate, 10 uM; active = over 0.2 and 3.5 SD of the protein, either way, in both replicates (recomputed)
alvocidib = compound: CN1CC[C@H](c2c(O)cc(O)c3c(=O)cc(-c4ccccc4Cl)oc23)[C@H](O)C1 [alvocidib]
Method in brief: (§1)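 Thermal stability, expressed as log-two fold change relative to solvent controls, is given from duplicates. Crude K562 extract in PBS pH 7.4 with 1 mM MgCl2, at 1 mg/mL protein, was treated with 10 μM compound for 30 min and heated in aliquots for 3 min across 48°C-58°C. After pooling, adjustment to 0.5% NP-40 at 4°C and centrifugation at 21,000xg for 90 min, supernatant protein was measured by TMTpro 16plex LC-MS/MS with channel sums equalised.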

Tubastatin A = compound: CN1CCc2c(c3ccccc3n2Cc2ccc(C(=O)NO)cc2)C1 [Tubastatin A]
Method in brief: as §1

[1] = compound: CNC(=O)C1=CC=CC=C1NC2=NC(=NC=C2Cl)NC3=C(C=C(C=C3)N4CCOCC4)OC
Method in brief: as §1

defactinib = compound: CNC(=O)c1ccc(Nc2ncc(C(F)(F)F)c(NCc3nccnc3N(C)S(C)(=O)=O)n2)cc1 [defactinib]
Method in brief: as §1

[2] = compound: CNc1nc(-c2ccc3c(N)n[nH]c3c2)cc(N2C[C@@H](C(=O)NC3CCCCC3)CC[C@H]2C)n1
Method in brief: as §1

encorafenib = compound: COC(=O)N[C@@H](C)CNc1nccc(-c2cn(C(C)C)nc2-c2cc(Cl)cc(NS(C)(=O)=O)c2F)n1 [encorafenib]
Method in brief: as §1

[3] = compound: COC(=O)[C@H](CCSC)NC(=O)C1=C(C=C(C=C1)NC[C@H](CS)N)C2=CC=CC=C2
Method in brief: as §1

alisertib = compound: COc1cc(Nc2ncc3c(n2)-c2ccc(Cl)cc2C(c2c(F)cccc2OC)=NC3)ccc1C(=O)O [alisertib]
Method in brief: as §1

[4] = compound: COc1cc2nc(-c3cc(F)ccc3O)nc(N[C@@H]3CNC[C@H]3C(C)(C)O)c2cc1OC
Method in brief: as §1

gefitinib = compound: COc1cc2ncnc(Nc3ccc(F)c(Cl)c3)c2cc1OCCCN1CCOCC1 [gefitinib]
Method in brief: as §1

Measured: log2 fold change

DNPEP (UniProt Q9ULA0)
inactive: alvocidib 0.02 | Tubastatin A 0.054 | [1] -0.021 | defactinib -0.005 | [2] 0.04 | encorafenib 0.006 | [3] -0.037 | alisertib 0.004 | [4] 0.004 | gefitinib -0.026

DNM1L isoform 2 (UniProt O00429)
inactive: alvocidib -0.108 | Tubastatin A -0.054 | [1] -0.013 | defactinib 0.095 | [2] -0.205 | encorafenib 0.147 | [3] 0.018 | alisertib 0.015 | [4] -0.066 | gefitinib 0.026

DNAJA1 (UniProt P31689)
inactive: alvocidib -0.007 | Tubastatin A 0.007 | [1] -0.007 | defactinib -0.006 | [2] 0 | encorafenib 0.024 | [3] -0.115 | alisertib 0.017 | [4] 0.004 | gefitinib 0.009

Two entries picked at random from the list so far:
DNM1L isoform 2 (UniProt O00429)
inactive: alvocidib -0.108 | Tubastatin A -0.054 | [1] -0.013 | defactinib 0.095 | [2] -0.205 | encorafenib 0.147 | [3] 0.018 | alisertib 0.015 | [4] -0.066 | gefitinib 0.026

DNPEP (UniProt Q9ULA0)
inactive: alvocidib 0.02 | Tubastatin A 0.054 | [1] -0.021 | defactinib -0.005 | [2] 0.04 | encorafenib 0.006 | [3] -0.037 | alisertib 0.004 | [4] 0.004 | gefitinib -0.026

The list goes on:

DHX9 (UniProt Q08211)
inactive: alvocidib 0.008 | Tubastatin A -0.067 | [1] 0.003 | defactinib 0.002 | [2] -0.003 | encorafenib 0.019 | [3] -0.019 | alisertib 0.001 | [4] 0.003 | gefitinib -0.017

DKC1 (UniProt O60832)
inactive: alvocidib -0.026 | Tubastatin A 0.029 | [1] 0.005 | defactinib -0.065 | [2] 0.017 | encorafenib 0.009 | [3] 0.027 | alisertib 0.009 | [4] -0.006 | gefitinib 0.008

DLGAP5 (UniProt Q15398)
inactive: alvocidib -0.007 | Tubastatin A -0.021 | [1] 0.01 | defactinib 0.004 | [2] -0.004 | encorafenib 0.024 | [3] 0 | alisertib -0.016 | [4] -0.02 | gefitinib -0.001

DGUOK (UniProt Q16854)
inactive: alvocidib 0.019 | Tubastatin A 0.065 | [1] -0.005 | defactinib -0.018 | [2] 0.023 | encorafenib -0.003 | [3] -0.027 | alisertib -0.02 | [4] 0.011 | gefitinib 0.011

DIMT1 (UniProt Q9UNQ2)
inactive: alvocidib 0.02 | Tubastatin A 0.009 | [1] 0.01 | defactinib -0.004 | [2] -0.012 | encorafenib -0.001 | [3] 0.018 | alisertib -0.025 | [4] -0.011 | gefitinib 0.008

DNAJA2 (UniProt O60884)
inactive: alvocidib 0 | Tubastatin A 0.001 | [1] 0.009 | defactinib 0.01 | [2] -0.002 | encorafenib 0.029 | [3] -0.064 | alisertib 0.046 | [4] 0.002 | gefitinib -0.02

DHRS7B (UniProt Q6IAN0)
inactive: alvocidib -0.004 | Tubastatin A 0.142 | [1] 0.048 | defactinib -0.035 | [2] 0.018 | encorafenib 0.053 | [3] -0.008 | alisertib -0.017 | [4] -0.013 | gefitinib 0.024

DIDO1 (UniProt Q9BTC0)
inactive: alvocidib -0.027 | Tubastatin A -0.032 | [1] -0.019 | defactinib 0.003 | [2] 0.053 | encorafenib 0.069 | [3] 0.043 | alisertib -0.07 | [4] -0.025 | gefitinib 0.025

DGCR8 (UniProt Q8WYQ5)
inactive: alvocidib 0.009 | Tubastatin A -0.115 | [1] -0.009 | defactinib -0.046 | [2] 0.042 | encorafenib 0.018 | [3] 0.081 | alisertib 0.022 | [4] 0.027 | gefitinib -0.034

DMAC2L (UniProt Q99766)
active: [3] -1.03
inactive: alvocidib 0.029 | Tubastatin A 0 | [1] -0.056 | defactinib 0.022 | [2] 0.018 | encorafenib 0.016 | alisertib 0.074 | [4] 0.031 | gefitinib 0.061

DGCR2 (UniProt P98153)
inactive: alvocidib -0.14 | Tubastatin A -0.14 | [1] 0.09 | defactinib 0.068 | [2] -0.145 | encorafenib -0.094 | [3] -0.014 | alisertib -0.155 | [4] -0.055 | gefitinib 0.068
